Values from PubChem BioAssay AID1224826 (NIAID, 2016)

Screen: 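Knock-downs that raise or lower Tnf reporter signal after endotoxin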 (primary screen)
System: RAW264.7 G9 macrophages from mouse bearing reporters for p65 (GFP) and the Tnf promoter (mCherry)
Reagents: siRNA pool against mouse genes, 100 nM
Time to read-out: 16 h of LPS stimulation, after 2 days of siRNA transfection
Treatment: bacterial lipopolysaccharide (Salmonella minnesota R595), 10 ng/ml
Read-out: 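Nuclear mCherry signal of the Tnf promoter reporter measured by imaging after background removal, scaled to each plate median and turned into robust z-scores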
Scale: Tnf reporter robust z-score: higher = stronger Tnf promoter reporter signal after LPS; Tnf reporter intensity: higher = stronger Tnf promoter reporter signal
Active means: 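a well counts as active at a score of -1.3 or below (Tlr4 knock-down control median) or above 3 (raised signal); controls and wells holding fewer than 50 cells are excluded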
Meaning of the calls: active = Tnf reporter clearly lowered or raised; inactive = no clear change in Tnf reporter
Shown is one part, drawn at random, of about 17,000 reagents tested. About 1,110 of all reagents (6.6%) count as active. 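Active means lowered or raised reporter signal; replicate intensities are raw and not normalised per plate.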 Entries without a mark were called inactive. Further read-outs or replicates are left out here.

no.	gene symbol	Tnf reporter robust z-score	fewer than 50 cells in well	Tnf reporter intensity, replicate 1
1	Dgkz	0.05	enough cells in well	168
2	Spout1	0.78	enough cells in well	210
3	Or4c12b	-0.38	enough cells in well	191
4	Or2a57	0.2	enough cells in well	94.2
5	Or5p62	-0.63	enough cells in well	99.3
6	Smg8	0.7	enough cells in well	263
7	Cidec	1.2	enough cells in well	260
8	Cyp1a1	1.07	enough cells in well	310
9	Fxyd7	-0.11	enough cells in well	197
10	Wif1		fewer than 50 cells per well; well left out of calls	137
11	Aldh1a7	-0.32	enough cells in well	178
12	Snrnp35	-1.74 (active)	enough cells in well	72.6
13	Cript		fewer than 50 cells per well; well left out of calls	119
14	Padi6	0.75	enough cells in well	189
15	Prpf40b	2.09	enough cells in well	261
16	Dcaf8	-0.03	enough cells in well	196
17	Irx2	-0.98	enough cells in well	127
18	Kif5a	-0.29	enough cells in well	199
19	Slco2b1	-2 (active)	enough cells in well	33.8
20	Atxn3	-0.57	enough cells in well	230
21	Or5d47	-0.11	enough cells in well	79.6
22	Mup3	-2.2 (active)	enough cells in well	62.4

The list goes on (7 carried over from the part before).
no.	gene symbol	Tnf reporter robust z-score	fewer than 50 cells in well	Tnf reporter intensity, replicate 1
16	Dcaf8	-0.03	enough cells in well	196
17	Irx2	-0.98	enough cells in well	127
18	Kif5a	-0.29	enough cells in well	199
19	Slco2b1	-2 (active)	enough cells in well	33.8
20	Atxn3	-0.57	enough cells in well	230
21	Or5d47	-0.11	enough cells in well	79.6
22	Mup3	-2.2 (active)	enough cells in well	62.4
23	Hnrnpu	1.49	enough cells in well	320
24	Acsl1	-0.24	enough cells in well	222
25	Vmn1r208	0.38	enough cells in well	133
26	Rspo1		fewer than 50 cells per well; well left out of calls	177
27	Kcnk7	3.65 (active)	enough cells in well	473
28	Sycp2		fewer than 50 cells per well; well left out of calls	290
29	Erh	0.86	enough cells in well	289
30	Tspear	0.55	enough cells in well	129
31	Aaas	0.39	enough cells in well	197
32	Prdx4	-0.92	enough cells in well	189
33	Or8b55	-0.75	enough cells in well	110
34	Nudt21	1.06	enough cells in well	300
35	Rasd1	-0.56	enough cells in well	248
36	Apba3	-0.24	enough cells in well	196
37	Tulp3		fewer than 50 cells per well; well left out of calls	103
38	Itga9	2.03	enough cells in well	375
39	Frat2	-0.08	enough cells in well	267
40	Tmem165		fewer than 50 cells per well; well left out of calls	82.7
41	Or8a1	0.6	enough cells in well	195
42	Psg17	-1.16	enough cells in well	73.7
43	1810043J12RIK		fewer than 50 cells per well; well left out of calls	90.8
44	Zfand2a	-0.07	enough cells in well	195
45	C130021I20Rik	-0.88	enough cells in well	84.2
46	Capza1	0.51	enough cells in well	166
47	Snrnp48	2.7	enough cells in well	374
48	Eif2s2	-1.43 (active)	enough cells in well	105
49	Fam241b		fewer than 50 cells per well; well left out of calls	289
50	Wnt2b	0.02	enough cells in well	311
51	Cyp2c38	0.93	enough cells in well	264
52	Pphln1		fewer than 50 cells per well; well left out of calls	110
53	Scgb1b27	0.02	enough cells in well	248
54	Ei24	-0.6	enough cells in well	187
55	Myo19	-0.86	enough cells in well	157
56	Mboat1	-1.25	enough cells in well	116
57	Matcap2	-0.3	enough cells in well	201
58	Or1m1	0.12	enough cells in well	173
